The values that follow come from patent publication US20230235004A1.

Test [1] addresses cyno MAdCAM protein (cyno). Description: ELISA. On the technique in general: In an ELISA, binding on a coated surface is turned into a signal by an enzyme label.
The target of test [2] is cyno MAdCAM protein (cyno). Description: Octet. In general terms: BLI is a label-free optical method that tracks binding on a fibre tip over time.

These are yes or no findings as the source states them, for the method shown. Binding can be weak; no strength is given.

B1: MAdCAM antibody Table 1 clone 3 (scFv)
scFv: QVQLVQSGAEVKKPGASVKVSCKASGYPFIGQYLHWVRQAPGQGLEWMGIINPSGGSTSYAQKFQGRVTMTRDTSTSTVYMELSSLRSEDTAVYYCAREGRLSYGMDAWGQGTLVTVSSGGGGSGGGGSGGGGSGGGGSDIQMTQSPSSLSASVGDRVTITCRASQSISSYLAWYQQKPGKAPKLLIYGASTLESGVPSRFSGSGSGTDFTLTISSLQPEDFATYYCQQTWGPPFTFGQGTKLEIK
As for B1, the binding entry in test [1] is recorded as “binds”.

B2: MAdCAM antibody Table 1 clone 13 (scFv)
scFv: EVQLLESGGGLVQPGGSLRLSCAASGFTFDDYAMHWVRQAPGKGLEWVSYIDASGTTIYYADSVKGRFTISRDNSKNTLYLQMNSLRAEDTAVYYCAKDQAAAGYWYFDLWGRGTLVTVSSGGGGSGGGGSGGGGSGGGGSDIQMTQSPSSLSASVGDRVTITCQASQDISNYLNWYQQKPGKAPKLLIYKASTLESGVPSRFSGSGSGTDFTLTISSLQPEDFATYYCQQSYSTPITFGQGTRLEIK
With B2, the binding entry in test [1] is listed as “binds”.

B3: MAdCAM antibody Table 1 clone 8 (scFv)
scFv: EVQLLESGGGLVQPGGSLRLSCAASGFMFGDYAMHWVRQAPGKGLEWVSAISGSGGSTYYADSVKGRFTISRDNSKNTLYLQMNSLRAEDTAVYYCAKDLVVAGIWYFDLWGRGTLVTVSSGGGGSGGGGSGGGGSGGGGSDIQMTQSPSSLSASVGDRVTITCRASQGISNNLNWYQQKPGKAPKLLIYDASSLESGVPSRFSGSGSGTDFTLTISSLQPEDFATYYCQQTHSFPSTFGQGTKLEIK
In the case of B3, the binding result in test [1] is listed as “binds”.

B4: MAdCAM antibody Table 1 clone 23 (scFv)
scFv: EVQLLESGGGLVQPGGSLRLSCAASGFTFSSYAMHWVRQAPGKGLEWVSGISGSGGSAYYADSVKGRFTISRDNSKNTLYLQMNSLRAEDTAVYYCATSQAPVDYYYYGMDVWGQGTTVTVSSGGGGSGGGGSGGGGSGGGGSDIQMTQSPSSLSASVGDRVTITCRASQSISSWLAWYQQKPGKAPKLLIYAASNLQRGVPSRFSGSGSGTDFTLTISSLQPEDFATYYCQQSYSIPITFGQGTKVEIK
As to B4, the binding result in test [2] is given as “binds”.

B5: MAdCAM Antibody Table 2 clone 56 (antibody, V domains shown)
VH: EVQLVESGGGLVKPGGSLRLSCAASGFTFSSYWMSWVRQAPGKGLEWVSAIGTGGGTYYAAPVKGRFTISRDDSKNTLYLQMNSLKTEDTAVYYCAREWLVPYYGMDVWGQGTTVTVSS
VL: DIQMTQSPSSLSASVGDRVTITCRASQSISRWLAWYQQKPGKAPKLLIYGASNLQSGVPSRFSGSGSGTDFTLTISSLQPEDFATYYCQQSYSTPWTFGQGTKVEIK
On to B5, for which the binding result in test [1] is recorded as “binds”.

B6: MAdCAM antibody Table 1 clone 14 (scFv)
scFv: QVQLVQSGAEVKKPGSSVKVSCKASGYTFTDYHIHWVRQAPGQGLEWMGGIVPRSGSTTYAQKFQGRVTITADESTSTAYMELSSLRSEDTAVYYCAKDESSGWYYFDYWGQGTLVTVSSGGGGSGGGGSGGGGSGGGGSDIVMTQSPLSLPVTPGEPASISCRSSQSLLHSNGYNYLDWYLQKPGQSPQLLIYSAYNRASGVPDRFSGSGSGTDFTLKISRVEAEDVGVYYCMQALQTPLTFGQGTKVEIK
Turning to B6, the binding entry in test [1] is given as “binds”.

B7: MAdCAM antibody Table 1 clone 11 (scFv)
scFv: QVQLVQSGAEVKKPGASVKVSCKASGYTFTTYYMHWVRQAPGQGLEWMGGFDPEDGETIYAQKFQGRVTMTRDTSTSTVYMELSSLRSEDTAVYYCARHAVAGAVGAGYYYYGMDVWGQGTMVTVSSGGGGSGGGGSGGGGSGGGGSDIQMTQSPSSLSASVGDRVTITCRASESISNWLAWYQQKPGKAPKLLIYAASTLQSGVPSRFSGSGSGTDFTLTISSLQPEDFATYYCQQSYSVPFTFGPGTKVDIK
B7: the binding result in test [1] is recorded as “binds”.

B8: MAdCAM antibody Table 1 clone 10 (scFv)
scFv: QVQLVQSGAEVKKPGASVKVSCKASGYTLTTWYMYWVRQAPGQGLEWMGWINPNRGATNYAQKFQGRVTMTRDTSTSTVYMELSSLRSEDTAVYYCAKGDLWGAMDVWGQGTLVTVSSGGGGSGGGGSGGGGSGGGGSDIQMTQSPSSLSASVGDRVTITCRASDNIGSWLAWYQQKPGKAPKLLIYAASSLQSGVPSRFSGSGSGTDFTLTISSLQPEDFATYYCQQGYSTPPTFGQGTKVEIK
As to B8, the binding entry in test [1] is given as “binds”.

B9: MAdCAM antibody Table 1 clone 15 (scFv)
scFv: QVQLVQSGAEVKKPGSSVKVSCKASGYTFTNYYMHWVRQAPGQGLEWMGGIIPIVDRVKYAQKFQGRVTITADESTSTAYMELSSLRSEDTAVYYCAKGRYTVNYYYGMDVWGQGTTVTVSSGGGGSGGGGSGGGGSGGGGSDIQMTQSPSSLSASVGDRVTITCQANQDISNYLNWYQQKPGKAPKLLIYRASKLEAGVPSRFSGSGSGTDFTLTISSLQPEDFATYYCQQSSEIPYSFGQGTKLEIK
Turning to B9, the binding entry in test [1] is on record as “binds”.

B10: MAdCAM antibody Table 1 clone 12 (scFv)
scFv: QVQLVQSGAEVKKPGASVKVSCKASGYTFTGYYMHWVRQAPGQGLEWMGWIGPNSGDTNYAQKFQGRVTMTRDTSTSTVYMELSSLRSEDTAVYYCARDLDHNWYFDLWGRGTLVTVSSGGGGSGGGGSGGGGSGGGGSDIVMTQSPLSLPVTPGEPASISCRSSQSLLHSNGYNYLDWYLQKPGQSPQLLIYSSSNRAPGVPDRFSGSGSGTDFTLKISRVEAEDVGVYYCMQALHIPLTFGGGTKVEIK
As for B10, the binding result in test [1] is on record as “binds”.

B11: MAdCAM Antibody Table 2 clone 64 (antibody, V domains shown)
VH: EVQLLESGGGLVQPGGSLRLSCAASGFTFSNSDMNWVRQAPGKGLEWVAHIWNDGSQKYYADSVKGRFTISRDNSKNTLYLQMNSLRAEDTAVYYCARDRTDPGYSSAMDVWGQGTTVTVSS
VL: DIQMTQSPSSLSASVGDRVTITCRASQDIRNYLGWYQQKPGKAPKLLIYDASSLETGVPSRFSGSGSGTDFTLTISSLQPEDFATYYCQQATSLPLTFGGGTKVEIK
For B11, in test [1], the binding entry was “binds”.

B12: MAdCAM Antibody Table 2 clone 66 (antibody, V domains shown)
VH: QVQLVQSGAEVKKPGASVKVSCKASGYTFTGHYMHWVRQAPGQGLEWMGIINPSGGSTSYAQKFQGRVTMTRDTSTSTVYMELSSLRSEDTAVYYCARDGAWFGEEYYYGMDVWGQGTTVTVSS
VL: DIQMTQSPSSLSASVGDRVTITCRASQGISNWLAWYQQKPGKAPKLLIYDASNLETGVPSRFSGSGSGTDFTLTISSLQPEDFATYYCQQYYSFPLYTFGQGTKVEIK
In the case of B12, the binding result in test [1] was “binds”.

B13: MAdCAM Antibody Table 2 clone 69 (antibody, V domains shown)
VH: QVQLVQSGAEVKKPGASVKVSCKASGYTFTSYYMHWVRQAPGQGLEWMGIIDPSGGSTSYAQKFQGRVTMTRDTSTSTVYMELSSLRSEDTAVYYCAREEWSSGGVGYFDYWGQGTLVTVSS
VL: DIQMTQSPSSLSASVGDRVTITCRASQGISSYLAWYQQKPGKAPKLLIYATSSLQTGVPSRFSGSGSGTDFTLTISSLQPEDFATYYCQQTYSIPITFGQGTRLEIK
In the case of B13, in test [1], the binding result was “binds”.

B14: MAdCAM antibody Table 1 clone 20 (scFv)
scFv: EVQLLESGGGLVQPGGSLRLSCAASGFTFDDYAMHWVRQAPGKGLEWVSYIDTSSSHLYYADSVKGRFTISRDNSKNTLYLQMNSLRAEDTAVYYCARDEAAAGYYGMDVWGQGTTVTVSSGGGGSGGGGSGGGGSGGGGSDIQMTQSPSSLSASVGDRVTITCQAGQDISNYLNWYQQKPGKAPKLLIYDASNLETGVPSRFSGSGSGTDFTLTISSLQPEDFATYYCQQTYSTPITFGQGTKLEIK
As to B14, the binding entry in test [2] is reported as “binds”.
